# According to PMC11263360, “The structural basis of the activation and inhibition of DSR2 NADase by phage proteins” (Nature Communications, 2024):
# B1: DSR2 from Bacillus subtilis 29 R, wild type (enzyme, UniProt P0DXN8 1-1005, looked up)
# chain: MVKVDLESKRYGEKLKEVFLMLDNNVVECIKEITESSRNGKLVFFVGAGVSTLSDYPQWWRLVDKYHEELYGSPKKGNYSSDEYLRIPQIFYNVKGEMAFDGILKDFFQVDKPTNPIHDKILAMNPAHVITTNYDNLIDTACWKRGKYFSVISAEEDVANATSSRYLLKVHGDFRKGFKGENVVLKEDDYLNYDQNYPLISNLMKTIIATHTIVFIGYGLGDYNINMLLNWVRKLQKDSFHKPFFIRTDPSPIENETLIYYENKGLRIIDAASLIDSNEYDYLERYSAVMDLLIESQENKFITKDDEVIDYIYGKISPLFALQYIRKIDLKHVFEYDYHFEVNGTVVRHKNKGFGYMERFFELKESCDERSKLSKKQYERFNALFNFFEKNGVICMAKDAGTLNTSIEINSLAYHGKYDVMKKFIEEQSVSIEDDYKKAFFLACLGRWEESYDLYSNIILNSIDESNGCVYYLSQINRYRIYQSITQAVTQFNGLGLLTFGRHYKPFTDEFLARIEREMTNFNIDDLFNGMPFEFQKKYKILEFLSDNQFLYDDTVKLFELTNKVRSEMSEGSYSFGMSSDIVVLLRLYDNLRFLYENCLWSVSFHEFHQYIRNSMSLLIEKAEYERTRDIDELGFSFFGKKSGFFMEYYDFVNISRHFKIDDIKNLERSCSIDKIRFGEQEKIEEYLVGIAEEITKQFSANGMNVVFYTQFISEAKAALYFAKYVKLSEEGLGKIVKALLFYFPERDLDIGKRYVWLERLTKCNELPKSIISIIDDFLVLQAEKHIDQNYSEVSSNGLYSRDYGALIKHFEKNFISKRLSEITLCLTQDKQKQIDFLFKLLPLLSTNAKSHLLSFKSVENINDLMNGIRIGLIDEFTPEHEELIIEYLETRKVNYIVEKEKGIQTFSSNDYMSTFGIWYFLEEINNSKMEEFIGMDDQYDFFVDPENFDYKKFIPSWLKNYNDKLLGKIAGNKHMKHHVIEVLKERVKNSNDKRYLEILMNYFI
# notes: DSR2, Sir2 domain-containing NADase, Bacillus subtilis 29 R, WP_029317421, full length (domains described over residues 1-1005); Cloned into pRSF-32M or pET-32M.3C (both add N-terminal thioredoxin and 6xHis); Crosslinked with BS3 for part of the cryo-EM data; also called WT DSR2; wild-type (WT) DSR2; source: E. coli BL21 (DE3), purified (Ni-NTA, size exclusion); for the DSR2-DSAD1 complex …
# Biological target: Strep-tagged TTP (SPR phage)
# Assay: pull-down; Strep pull-down on Strep-Tactin resin; 50 µg DSR2 pre-mixed with Strep-TTP (1:1) or with MBP-DSAD1 at the indicated ratios for 1 h on ice, then the third protein added; 25 mM Tris pH 7.5, 100 mM NaCl, 1 mM DTT; SDS-PAGE with Coomassie; both purified
binder,measurement,value
B1,binding,binds

# These are yes or no findings as the source states them, for the method shown. A result given as binding can be weak or reduced; the word gives no strength.
